Measurements as given in paper PMC6412927.
These are yes or no findings as the source states them, for the method shown. Some binding calls cover weakened binding; strength is not graded here.

Legend:
Test in all cases: two-hybrid; LexA-DB fused PREs (pGilda) with B42-AD fused PAR1 or PAR2 (pYesTrp2) in S. cerevisiae EGY48; growth on SD/Gal/Raf (-Ura/-His/-Trp/-Leu) induction medium, 30 °C, images after 3 d
[1] = biological target: T1, PACLOBUTRAZOL-… 3 (PRE3) (Arabidopsis thaliana) (UniProt Q9CA64)
T1 sequence: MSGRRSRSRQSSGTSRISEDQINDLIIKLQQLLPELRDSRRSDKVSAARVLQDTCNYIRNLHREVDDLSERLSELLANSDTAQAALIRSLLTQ

[2] = biological target: T2, PACLOBUTRAZOL-… 5 (PRE5) (Arabidopsis thaliana) (UniProt Q9LJX1)
T2 sequence: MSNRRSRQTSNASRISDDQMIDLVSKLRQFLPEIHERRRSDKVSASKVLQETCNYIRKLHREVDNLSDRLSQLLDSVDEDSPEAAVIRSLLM

[3] = biological target: T3, PACLOBUTRAZOL-… 2 (PRE2) (Arabidopsis thaliana) (UniProt Q9LXG5)
T3 sequence: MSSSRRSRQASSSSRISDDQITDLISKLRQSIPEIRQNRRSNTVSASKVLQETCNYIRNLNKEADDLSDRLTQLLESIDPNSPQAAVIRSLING

[4] = biological target: T4, PACLOBUTRAZOL-… 1 (PRE1) (Arabidopsis thaliana) (UniProt Q9FLE9)
T4 sequence: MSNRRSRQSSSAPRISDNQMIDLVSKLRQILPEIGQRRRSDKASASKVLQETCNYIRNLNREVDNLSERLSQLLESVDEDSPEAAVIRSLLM

[5] = biological target: T5, PACLOBUTRAZOL-… 4 (PRE4) (Arabidopsis thaliana) (UniProt F4JCN9)
T5 sequence: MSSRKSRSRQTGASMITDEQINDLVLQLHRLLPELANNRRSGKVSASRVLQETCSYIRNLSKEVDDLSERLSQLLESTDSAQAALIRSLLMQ

[6] = biological target: T6, PACLOBUTRAZOL-… 6 (PRE6) (Arabidopsis thaliana) (UniProt Q8GW32)
T6 sequence: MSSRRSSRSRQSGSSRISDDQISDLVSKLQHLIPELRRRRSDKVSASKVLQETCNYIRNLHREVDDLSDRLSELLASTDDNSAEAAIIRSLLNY

Measured: binding

B1: PAR2 (protein, UniProt Q9LXR7 1-118)
chain: MEKTLATSHTKRSSPPSPSSAVNTSSTGFNRRTRQRLSDATASVSETDVEDEDEDEEGVEEKIEALQTIVPGGTELGVDALFEETASYILALQCQINAIKVLTTFLERCEKKDMKFGG
binds: all assays above

B2: PAR1 (protein, UniProt Q9SJH0 1-118)
chain: MEETLATPDATRRSLSPSCSATVKSRAAGFERRTKRRLSETNASVREDREEAEEEEDEVKEKIEALQRIIPGGAALGVDALFEETAGYILSLQCQIKTIKVLTSFLQRIDQEDMKFGG
binds: all assays above
